Experimental data: PubChem BioAssay AID720505 (Drosophila RNAi Screening Center, 2013)

- Assay: 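Fly regulators or components of the CRAC channel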 (primary screen)
- Cell system: Drosophila S2R+ cells
- Reagents: long dsRNA against Drosophila genes
- Challenge: thapsigargin (2 µM) in calcium-free buffer to empty internal stores, then 2 mM calcium added back
- Read-out: 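Fluo-4 signal in 384-well plates read on a FLIPR after thapsigargin (2 µM, calcium-free) store depletion and 2 mM calcium add-back; unnormalised mean endpoint per well; screen run twice, selected wells retested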
- Reading the numbers: calcium signal and retest calcium signal: higher = more calcium entry after store depletion
- Call rule: 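Knock-downs counted as hits when calcium entry dropped relative to STIM1 positive and Rho1 negative controls present on each plate; roughly 1500 genes called, with reductions of differing size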
- Meaning of the calls: active = called as lowering calcium entry; inactive = not called
In all, the deposit lists about 20,000 reagents; below is an unselected part of those with a known target gene and a result. Over the whole deposit, about 2,100 (10%) are marked active. 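Raw plate signals without normalisation; calls rest on control-based scores that were not deposited; replicate 2 separates called from uncalled poorly.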 A plus sign joins genes that one reagent is predicted to hit. Not given: the amount of reagent, the time to read-out.

Gene	dsRNA	calcium signal, replicate 1	calcium signal, replicate 2	retest calcium signal, replicate 1	retest calcium signal, replicate 2	activity call
CG15203	DRSC19650	121	96.8			inactive
CG12182	DRSC08142	158	123			inactive
Pex11c	DRSC14677	212	112			inactive
CG4496	DRSC02753	138	105			inactive
Jra	DRSC07447	174	137			inactive
hbs	DRSC07627	120	208			inactive
dpr3	DRSC00395	99.4	145			inactive
dpr3	DRSC00396	91.2	127			inactive
dpr3	DRSC21369	66.5	105			active
Tao	DRSC19573	116	80.3	76.9	75.3	inactive
Tao	DRSC19574	71.1	136	5096	137	active
Tao	DRSC22639	144	202			inactive
CG15403	DRSC00417	111	90.3			inactive
CG8319	DRSC16407	144	101			inactive
sturkopf	DRSC08637	141	139			inactive
Fbxo42	DRSC04529	92.3	101			inactive
CG12825	DRSC06174	55.6	60.2	56.5	94.4	active
robo2	DRSC00377	168	151			inactive
robo2	DRSC00378	199	172			inactive
robo2	DRSC00686	200	146			inactive
robo2	DRSC00691	136	167			inactive
Arc1	DRSC06159	172	135	104	108	inactive
Pgm2b	DRSC05978	166	124			inactive
tadr	DRSC03177	107	121			inactive
Sys1	DRSC14372	124	151			inactive
gwl	DRSC16305	86	152			inactive
zye	DRSC11784	79	133			inactive
wit	DRSC08741	108	114			inactive
RpS3	DRSC16838	130	78.2			active
Rbp4	DRSC16818	167	199			inactive
Dhc36C	DRSC03315	83	101			inactive
Cpr35B	DRSC01949	119	89.3	96.7	134	inactive
Cpr35B	DRSC22797	84.6	86.2			inactive
Mocs2A + Mocs2B	DRSC13697	74.5	113			inactive
Mocs2A + Mocs2B	DRSC14219	253	175			inactive
AspRS	DRSC05914	139	112			inactive
CG12607	DRSC08287	81.8	70.2			inactive
Tsp42Ea	DRSC04982	118	104			inactive
Tsp42Ea	DRSC06792	91.4	99.4			inactive
CG34225	DRSC05270	121	101			inactive
Tsf2	DRSC09751	96	111			inactive
stil	DRSC07699	159	122			inactive
CG17234	DRSC00490	151	129			inactive
CG8750	DRSC11037	133	109			inactive

11 entries already listed, arranged by “calcium signal, replicate 1”, low to high:
Gene	dsRNA	calcium signal, replicate 1	calcium signal, replicate 2	retest calcium signal, replicate 1	retest calcium signal, replicate 2	activity call
CG12825	DRSC06174	55.6	60.2	56.5	94.4	active
Fbxo42	DRSC04529	92.3	101			inactive
CG15403	DRSC00417	111	90.3			inactive
robo2	DRSC00691	136	167			inactive
sturkopf	DRSC08637	141	139			inactive
CG8319	DRSC16407	144	101			inactive
Pgm2b	DRSC05978	166	124			inactive
robo2	DRSC00377	168	151			inactive
Arc1	DRSC06159	172	135	104	108	inactive
robo2	DRSC00378	199	172			inactive
robo2	DRSC00686	200	146			inactive

Additional results follow.
Gene	dsRNA	calcium signal, replicate 1	calcium signal, replicate 2	retest calcium signal, replicate 1	retest calcium signal, replicate 2	activity call
HSPBAP1	DRSC14567	105	80.8			inactive
CG33137	DRSC22131	114	126			inactive
CG5391	DRSC15790	189	161			inactive
ValRS-m	DRSC10535	85.5	66			inactive
CG16772	DRSC02516	103	109			inactive
Cpr47Ec	DRSC07332	72.4	163			inactive
Hayan	DRSC19989	195	94.2	64.6	89.9	inactive
Hayan	DRSC22231	74.2	182			inactive
CG8173	DRSC20088	96	133			inactive
arg	DRSC18737	87	98.4			inactive
PH4alphaEFB	DRSC14473	132	145			inactive
PH4alphaEFB	DRSC14950	151	163			inactive
PIG-T	DRSC17774	247	162			inactive
CG14259	DRSC14754	176	200			inactive
S-Lap3	DRSC10956	77.5	78.7			inactive
EloB	DRSC16663	165	160			inactive
CG13251	DRSC11699	112	132			inactive
Ada3	DRSC20321	87.2	157			inactive
Ada3	DRSC20322	106	139			inactive
Tudor-SN	DRSC08581	112	117			inactive
Cpr47Ea	DRSC07333	83.7	128			inactive
Dph1	DRSC09851	132	105			inactive
rgr	DRSC06487	212	233			inactive
rgr	DRSC07229	169	167			inactive
CG15657	DRSC04248	151	88			inactive
Vha44	DRSC07572	127	100			inactive
Vha44	DRSC07573	138	119			inactive
CG31974	DRSC00522	147	139			inactive
neo	DRSC16316	113	137			inactive
Zip102B	DRSC17155	104	130	101	82.8	inactive
ana1	DRSC16079	240	278			inactive
ana1	DRSC21825	62.8	160			inactive
RpL24	DRSC03185	78	114			active
ninaD	DRSC02886	109	102			inactive
CG10589	DRSC11629	100	157			inactive
prim	DRSC06575	153	139			inactive
CG2712	DRSC18589	101	160			inactive
CG31668	DRSC22584	150	198			inactive
CG3527	DRSC18307	146	101			inactive
Gos28	DRSC16292	189	166			inactive
Gos28	DRSC22859	84.4	97.2			inactive
Charon	DRSC00679	138	298			inactive
Nha2	DRSC14689	236	163			inactive
Nha2	DRSC15619	174	263			inactive
Nha2	DRSC15623	226	194			inactive
CG14879	DRSC15003	126	164			inactive
kl-3 (retired record)	DRSC20730	82	11410			inactive
kl-3 (retired record)	DRSC20891	205	95.8			inactive
kl-3 (retired record)	DRSC20934	138	10219			inactive
CG10874	DRSC00297	144	167			inactive
Pgi	DRSC07507	164	126			inactive
CG3625	DRSC00008	74.1	97.7			inactive
CG3625	DRSC00621	103	239			inactive
Map205	DRSC16732	80.6	127			inactive
Ttc30	DRSC02818	58.9	55.9	96.3	76	active
SmydA-9	DRSC17814	102	113			inactive
CG30105	DRSC05668	87.4	104			inactive
CG3534	DRSC15494	142	102			inactive
Syx18	DRSC14628	144	186			inactive
ics	DRSC01878	100	80.3			inactive
Rubicon	DRSC17889	195	118			inactive
ACOX1	DRSC05941	131	85			inactive
